No constants are given. Whether binding was seen depends on the method and setting. In cells and extracts the contact can be indirect. Some entries that bind do so weakly or less than the wild type. For some assays here: Where a sequence is shown, tags or fusion partners need not be part of it. Each block holds one binder with its values, some of them ahead of it.
Assays:
[1] = molecular target: CONSTANS (CO), TAP-tagged, transiently overexpressed in Nicotiana benthamiana (Arabidopsis thaliana) (UniProt Q39057); assay: co-IP; proteins transiently co-expressed in Nicotiana benthamiana leaves (3 days under LDs); TAP-tagged protein immunoprecipitated with anti-Protein A antibody, HA-tagged protein detected with anti-HA
[2] = molecular target: FKF1 (FLAVIN-BINDING, KELCH REPEAT, F-BOX 1), wild type, transiently overexpressed in Nicotiana benthamiana (Arabidopsis thaliana) (UniProt Q9C9W9); assay: as above
[3] = molecular target: ZEITLUPE (ZTL), TAP-tagged, transiently overexpressed in Nicotiana benthamiana (Arabidopsis thaliana) (UniProt Q94BT6); assay: as above
[4] = molecular target: T1, GIGANTEA (GI), TAP-tagged, expressed from the GI promoter in transgenic Arabidopsis (Arabidopsis thaliana) (UniProt Q9SQI2); assay: co-IP; 10-day-old transgenic Arabidopsis seedlings under LDs, harvested at ZT12; GI-TAP immunoprecipitated with anti-Protein A antibody, HA-FKF1 detected with anti-HA; also under white, red or blue light (Supplementary Fig. S3)
T1 sequence: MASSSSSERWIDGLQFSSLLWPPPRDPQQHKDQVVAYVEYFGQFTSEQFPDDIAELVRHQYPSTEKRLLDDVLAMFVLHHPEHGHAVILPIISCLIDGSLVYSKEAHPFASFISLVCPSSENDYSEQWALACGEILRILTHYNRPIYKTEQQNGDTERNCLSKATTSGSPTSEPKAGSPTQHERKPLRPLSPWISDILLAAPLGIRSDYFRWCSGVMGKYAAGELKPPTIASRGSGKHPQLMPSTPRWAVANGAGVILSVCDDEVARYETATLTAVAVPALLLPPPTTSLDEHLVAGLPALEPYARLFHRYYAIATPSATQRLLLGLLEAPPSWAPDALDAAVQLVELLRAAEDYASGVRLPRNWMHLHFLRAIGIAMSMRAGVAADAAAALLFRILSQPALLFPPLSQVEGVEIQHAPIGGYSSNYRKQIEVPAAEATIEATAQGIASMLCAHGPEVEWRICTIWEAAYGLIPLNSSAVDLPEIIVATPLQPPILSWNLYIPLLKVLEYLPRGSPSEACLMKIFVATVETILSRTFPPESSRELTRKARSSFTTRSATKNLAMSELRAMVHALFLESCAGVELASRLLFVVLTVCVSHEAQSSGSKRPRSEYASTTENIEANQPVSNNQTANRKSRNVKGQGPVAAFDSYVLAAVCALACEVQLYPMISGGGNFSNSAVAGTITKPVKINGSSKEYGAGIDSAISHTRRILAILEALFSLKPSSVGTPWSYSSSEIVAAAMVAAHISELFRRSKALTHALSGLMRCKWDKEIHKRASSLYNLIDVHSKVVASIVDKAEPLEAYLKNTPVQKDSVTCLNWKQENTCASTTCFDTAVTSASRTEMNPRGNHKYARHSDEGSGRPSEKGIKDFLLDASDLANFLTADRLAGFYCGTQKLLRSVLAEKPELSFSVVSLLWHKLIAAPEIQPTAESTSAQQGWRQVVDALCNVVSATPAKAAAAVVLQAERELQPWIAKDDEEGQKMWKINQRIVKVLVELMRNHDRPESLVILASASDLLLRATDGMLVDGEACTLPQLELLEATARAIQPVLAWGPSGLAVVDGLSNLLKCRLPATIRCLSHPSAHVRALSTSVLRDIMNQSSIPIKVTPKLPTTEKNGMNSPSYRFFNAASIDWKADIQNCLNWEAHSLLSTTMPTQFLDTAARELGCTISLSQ

Protein sequences, listed by entry. Tags and fused reporters are not part of them.
UniProt Q39057: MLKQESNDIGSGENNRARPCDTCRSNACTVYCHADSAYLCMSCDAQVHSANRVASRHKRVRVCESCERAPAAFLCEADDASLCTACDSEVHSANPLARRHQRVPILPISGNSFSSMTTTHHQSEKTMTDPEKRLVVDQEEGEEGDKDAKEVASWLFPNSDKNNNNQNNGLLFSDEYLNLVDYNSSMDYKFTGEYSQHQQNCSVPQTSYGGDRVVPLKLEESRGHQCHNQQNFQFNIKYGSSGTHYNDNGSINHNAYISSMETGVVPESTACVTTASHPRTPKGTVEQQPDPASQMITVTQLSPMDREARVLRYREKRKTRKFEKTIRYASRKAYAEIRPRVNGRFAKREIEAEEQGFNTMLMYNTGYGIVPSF
UniProt Q94BT6: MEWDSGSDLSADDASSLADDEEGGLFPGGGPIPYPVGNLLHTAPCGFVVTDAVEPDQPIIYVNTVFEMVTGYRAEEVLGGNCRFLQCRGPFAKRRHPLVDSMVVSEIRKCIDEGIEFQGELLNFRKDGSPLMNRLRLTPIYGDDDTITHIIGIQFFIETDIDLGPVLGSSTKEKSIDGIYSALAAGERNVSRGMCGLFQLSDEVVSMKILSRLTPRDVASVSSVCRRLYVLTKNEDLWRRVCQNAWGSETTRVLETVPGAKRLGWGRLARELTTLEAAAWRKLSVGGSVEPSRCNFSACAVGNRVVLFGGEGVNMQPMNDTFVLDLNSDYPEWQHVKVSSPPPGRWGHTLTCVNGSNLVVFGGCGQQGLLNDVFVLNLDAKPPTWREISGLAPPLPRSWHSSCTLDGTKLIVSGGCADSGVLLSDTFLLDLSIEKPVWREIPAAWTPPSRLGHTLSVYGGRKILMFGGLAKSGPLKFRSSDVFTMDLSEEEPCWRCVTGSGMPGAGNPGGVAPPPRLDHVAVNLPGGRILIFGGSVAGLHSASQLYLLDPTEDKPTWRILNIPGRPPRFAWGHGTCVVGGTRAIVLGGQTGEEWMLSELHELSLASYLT

[5] = molecular target: HA-FKF1, wild type, expressed from the FKF1 promoter in transgenic Arabidopsis (Arabidopsis thaliana), Q9C9W9; assay: co-IP; 10-day-old transgenic Arabidopsis seedlings under LDs, sampled at ZT12; HA-tagged FKF1 immunoprecipitated with anti-HA antibody, endogenous COP1 detected with anti-COP1 antibody; settings: remark: other sources report otherwise

- binding [1]: binds
- binding [2]: binds
- binding [3]: binds
B1: FKF1 I160R variant, HA-tagged, transiently overexpressed in Nicotiana benthamiana (protein, UniProt Q9C9W9 1-619)
chain: MAREHAIGEATGKRKKRGRVEEAEEYCNDGIEEQVEDEKLPLEVGMFYYPMTPPSFIVSDALEPDFPLIYVNRVFEVFTGYRADEVLGRNCRFLQYRDPRAQRRHPLVDPVVVSEIRRCLEEGIEFQGELLNFRKDGTPLVNRLRLAPIRDDDGTITHVRGIQVFSETTIDLDRVSYPVFKHKQQLDQTSECLFPSGSPRFKEHHEDFCGILQLSDEVLAHNILSRLTPRDVASIGSACRRLRQLTKNESVRKMVCQNAWGKEITGTLEIMTKKLRWGRLARELTTLEAVCWRKFTVGGIVQPSRCNFSACAVGNRLVLFGGEGVNMQPLDDTFVLNLDAECPEWQRVRVTSSPPGRWGHTLSCLNGSWLVVFGGCGRQGLLNDVFVLDLDAKHPTWKEVAGGTPPLPRSWHSSCTIEGSKLVVSGGCTDAGVLLSDTFLLDLTTDKPTWKEIPTSWAPPSRLGHSLSVFGRTKILMFGGLANSGHLKLRSGEAYTIDLEDEEPRWRELECSAFPGVVVPPPRLDHVAVSMPCGRVIIFGGSIAGLHSPSQLFLIDPAEEKPSWRILNVPGKPPKLAWGHSTCVVGGTRVLVLGGHTGEEWILNELHELCLASRQDSDL

- binding [4]: binds
B2: HA-FKF1 I160R, full-length FKF1 I160R expressed from the FKF1 promoter in transgenic Arabidopsis (protein, UniProt Q9C9W9 1-619)
chain: MAREHAIGEATGKRKKRGRVEEAEEYCNDGIEEQVEDEKLPLEVGMFYYPMTPPSFIVSDALEPDFPLIYVNRVFEVFTGYRADEVLGRNCRFLQYRDPRAQRRHPLVDPVVVSEIRRCLEEGIEFQGELLNFRKDGTPLVNRLRLAPIRDDDGTITHVRGIQVFSETTIDLDRVSYPVFKHKQQLDQTSECLFPSGSPRFKEHHEDFCGILQLSDEVLAHNILSRLTPRDVASIGSACRRLRQLTKNESVRKMVCQNAWGKEITGTLEIMTKKLRWGRLARELTTLEAVCWRKFTVGGIVQPSRCNFSACAVGNRLVLFGGEGVNMQPLDDTFVLNLDAECPEWQRVRVTSSPPGRWGHTLSCLNGSWLVVFGGCGRQGLLNDVFVLDLDAKHPTWKEVAGGTPPLPRSWHSSCTIEGSKLVVSGGCTDAGVLLSDTFLLDLTTDKPTWKEIPTSWAPPSRLGHSLSVFGRTKILMFGGLANSGHLKLRSGEAYTIDLEDEEPRWRELECSAFPGVVVPPPRLDHVAVSMPCGRVIIFGGSIAGLHSPSQLFLIDPAEEKPSWRILNVPGKPPKLAWGHSTCVVGGTRVLVLGGHTGEEWILNELHELCLASRQDSDL

- binding [5]: binds
B3: CONSTITUTIVE PHOTOMORPHOGENIC 1 (COP1), endogenous, P43254 1-675 (protein)
chain: MEEISTDPVVPAVKPDPRTSSVGEGANRHENDDGGSGGSEIGAPDLDKDLLCPICMQIIKDAFLTACGHSFCYMCIITHLRNKSDCPCCSQHLTNNQLYPNFLLDKLLKKTSARHVSKTASPLDQFREALQRGCDVSIKEVDNLLTLLAERKRKMEQEEAERNMQILLDFLHCLRKQKVDELNEVQTDLQYIKEDINAVERHRIDLYRARDRYSVKLRMLGDDPSTRNAWPHEKNQIGFNSNSLSIRGGNFVGNYQNKKVEGKAQGSSHGLPKKDALSGSDSQSLNQSTVSMARKKRIHAQFNDLQECYLQKRRQLADQPNSKQENDKSVVRREGYSNGLADFQSVLTTFTRYSRLRVIAEIRHGDIFHSANIVSSIEFDRDDELFATAGVSRCIKVFDFSSVVNEPADMQCPIVEMSTRSKLSCLSWNKHEKNHIASSDYEGIVTVWDVTTRQSLMEYEEHEKRAWSVDFSRTEPSMLVSGSDDCKVKVWCTRQEASVINIDMKANICCVKYNPGSSNYIAVGSADHHIHYYDLRNISQPLHVFSGHKKAVSYVKFLSNNELASASTDSTLRLWDVKDNLPVRTFRGHTNEKNFVGLTVNSEYLACGSETNEVYVYHKEITRPVTSHRFGSPDMDDAEEEAGSYFISAVCWKSDSPTMLTANSQGTIKVLVLAA
